Experiment: Catalyst activity test: crosslinking of α,ω-dihydroxylated oil with ethyl silicate
Details: after 24 h; 4.48 g 48V100 oil, 1.24 mmol catalyst, 0.52 g ethyl silicate

Molecule | Hard/liquid after 24 h
CC(C)(C)C(=O)C=C([O-])C(C)(C)C.CC(C)(C)C(=O)C=C([O-])C(C)(C)C.[Zn+2] [Catalyst (3), Zn(DPM)2] | hard
CC(=O)C=C(C)[O-].CC(=O)C=C(C)[O-].O.[Zn+2] [Comparative 2, zinc diacetylacetonate, reference compound] | hard
tetrabutyldistannoxane dilaurate [Comparative 1, reference compound] | hard
CCOC(=O)C=C(C)[O][Zn][O]C(C)=CC(=O)OCC [Catalyst (4), [Zn (EAA)2]] | hard
[Zn (isopropyl aceto-acetato)2] [Catalyst (5)] | hard

Same assay, conditions: corresponds to viscosity of approx. 1000 cP; 4.48 g 48V100 oil, 1.24 mmol catalyst, 0.52 g ethyl silicate, 300 rpm

Molecule | Time when stirring stops [h]
CCCCC(CC)C(=O)[O-].CCCCC(CC)C(=O)[O-].[Zn+2] (stereo not drawn) [Comparative 3, Zn(2-ethylhexanoate)2, reference compound] | 30

From patent US20110305911A1, “ARTICLE HAVING ANTIFOULING PROPERTIES AND INTENDED TO BE USED IN AQUATIC APPLICATIONS, PARTICULARLY MARINE APPLICATIONS” (BLUESTAR SILICONES FRANCE, priority 2008, published 2011)
